# According to the supplement of paper PMC10849652:
# The chains behind the UniProt entries cited, without tags or fusion partners. Where a name states a change or a piece, a line headed by the entry shows the natural chain unless it says otherwise.
# UniProt Q9BXS4: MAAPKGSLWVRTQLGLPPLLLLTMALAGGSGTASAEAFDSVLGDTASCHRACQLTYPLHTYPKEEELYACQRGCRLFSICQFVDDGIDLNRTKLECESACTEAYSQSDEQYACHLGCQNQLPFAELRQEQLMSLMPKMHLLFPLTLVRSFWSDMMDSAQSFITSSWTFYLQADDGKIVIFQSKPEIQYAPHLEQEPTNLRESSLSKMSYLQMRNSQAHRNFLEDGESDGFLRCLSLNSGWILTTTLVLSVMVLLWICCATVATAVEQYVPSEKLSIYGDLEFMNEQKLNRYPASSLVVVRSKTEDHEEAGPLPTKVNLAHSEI
# UniProt Q9BXJ8: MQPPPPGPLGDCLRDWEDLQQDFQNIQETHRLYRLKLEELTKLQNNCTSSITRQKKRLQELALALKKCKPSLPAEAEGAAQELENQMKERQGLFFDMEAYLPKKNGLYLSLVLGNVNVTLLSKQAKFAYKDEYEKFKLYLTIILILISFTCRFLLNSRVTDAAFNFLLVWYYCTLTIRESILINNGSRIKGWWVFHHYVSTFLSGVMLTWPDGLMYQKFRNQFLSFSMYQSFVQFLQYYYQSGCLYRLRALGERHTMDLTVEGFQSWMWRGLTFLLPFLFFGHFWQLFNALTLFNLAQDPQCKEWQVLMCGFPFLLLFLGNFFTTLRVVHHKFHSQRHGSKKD
# UniProt Q9NVA4: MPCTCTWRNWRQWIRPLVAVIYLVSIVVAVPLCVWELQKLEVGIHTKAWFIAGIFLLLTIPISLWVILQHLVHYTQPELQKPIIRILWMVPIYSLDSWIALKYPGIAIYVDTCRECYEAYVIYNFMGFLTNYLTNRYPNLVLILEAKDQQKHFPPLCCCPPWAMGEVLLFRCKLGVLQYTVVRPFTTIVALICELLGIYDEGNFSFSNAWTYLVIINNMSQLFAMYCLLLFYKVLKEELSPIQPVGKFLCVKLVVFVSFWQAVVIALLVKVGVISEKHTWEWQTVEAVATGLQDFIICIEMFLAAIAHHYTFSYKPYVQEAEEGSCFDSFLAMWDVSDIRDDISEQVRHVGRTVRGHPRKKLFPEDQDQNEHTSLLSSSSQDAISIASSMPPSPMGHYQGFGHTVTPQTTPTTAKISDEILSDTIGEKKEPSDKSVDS
# UniProt Q9NS93: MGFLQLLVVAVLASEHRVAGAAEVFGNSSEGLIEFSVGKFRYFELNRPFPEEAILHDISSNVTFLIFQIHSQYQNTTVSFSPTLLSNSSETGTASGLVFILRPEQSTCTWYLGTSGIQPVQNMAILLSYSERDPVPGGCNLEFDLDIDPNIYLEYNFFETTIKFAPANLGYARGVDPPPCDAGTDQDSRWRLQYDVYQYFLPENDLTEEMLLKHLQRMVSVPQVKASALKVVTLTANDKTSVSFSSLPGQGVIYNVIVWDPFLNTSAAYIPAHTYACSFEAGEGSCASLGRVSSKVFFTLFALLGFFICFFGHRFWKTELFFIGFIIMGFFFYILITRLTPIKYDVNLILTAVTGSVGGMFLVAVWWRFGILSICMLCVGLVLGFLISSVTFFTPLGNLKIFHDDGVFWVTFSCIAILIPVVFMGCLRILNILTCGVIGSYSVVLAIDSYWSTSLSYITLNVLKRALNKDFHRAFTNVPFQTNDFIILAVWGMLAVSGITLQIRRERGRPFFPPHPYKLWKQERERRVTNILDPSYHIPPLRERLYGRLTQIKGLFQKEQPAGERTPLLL
# UniProt Q96IK0: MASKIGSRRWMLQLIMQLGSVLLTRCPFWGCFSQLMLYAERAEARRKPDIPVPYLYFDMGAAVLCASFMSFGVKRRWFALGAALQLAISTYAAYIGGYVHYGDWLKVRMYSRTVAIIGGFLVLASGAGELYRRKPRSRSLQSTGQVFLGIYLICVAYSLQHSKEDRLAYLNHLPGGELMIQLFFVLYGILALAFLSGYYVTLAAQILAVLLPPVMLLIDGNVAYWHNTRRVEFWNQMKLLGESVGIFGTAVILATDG
# Some of the results follow. Residues, ends and D or L forms follow the SMILES beside them. *: point of attachment. Cbz = O=C(OCc1ccccc1)*
# Columns and labels:
# Test in all cases: log2 fold change, soluble protein after heating vs DMSO (PISA); higher = thermal stabilisation; K562 cells, 10 uM, 30 min; active = over 0.2 and 3.5 SD of the protein, either way, in both replicates (recomputed)
# [1] = compound: C1COCCN1CCN2C3=CC=CC=C3N=C2NC(=O)C4=CC(=CC=C4)[N+](=O)[O-] [IRAK-1-4 Inhibitor I]
# Outline: (§1)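 Soluble protein was quantified by TMTpro 16plex LC-MS/MS after channel sums were equalised. It was obtained as the supernatant after 21,000xg for 90 min from pooled aliquots of K562 cells (2×10^6 cells/mL, 10 μM compound, 30 min) heated for 3 min across 48°C-58°C and extracted in PBS with 0.5% NP-40 at 4°C. Thermal stability values are relative to control samples and come from duplicates. They are given as log2 fold changes.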
# [2] = compound: CC(=O)c1cnc2ccc(-c3cc(Cl)c(O)c(Cl)c3)nc2c1N[C@H]1CC[C@H](CN(C)C)CC1
# Outline: as §1
# [3] = compound: CC(C)(C)Cn1c(N)nc2ccc(-c3[nH]c(C(C)(C)C)nc3-c3ccc(F)cc3)nc21 [ralimetinib]
# Outline: as §1
# [4] = compound: CC(C)C1=C2N=C(C=C(N2N=C1)NCC3=CC=CC=C3)NCCCCCCN
# Outline: as §1
# [5] = compound: CC(C)C[C@@H](C=O)NC(=O)[C@H](CC(C)C)NC(=O)[C@H](CC(C)C)NC(=O)OCc1ccccc1
# Outline: as §1
# [6] = compound: CC(C)N(C[C@H]1O[C@@H](n2cnc3c(N)ncnc32)[C@H](O)[C@@H]1O)[C@H]1C[C@@H](CCc2nc3cc(C(C)(C)C)ccc3[nH]2)C1 [pinometostat]
# Outline: as §1
# [7] = compound: CC1=C(C(CC(=O)N1)C2=CC=C(C=C2)C(F)(F)F)C(=O)NC3=C(C=C4C(=C3)C=NN4)F
# Outline: as §1
# [8] = compound: CC1=C(C2=C(C=C1)C(=O)C3=CC=CC=C3N2CCCN)C
# Outline: as §1
# [9] = compound: CC1=C(C=C(C=C1)NC(=O)C2=CC(=CC=C2)N(C)C)NC(=O)C3=CC=C(C=C3)O
# Outline: as §1
# [10] = compound: CC1=CC=C(C=C1)SC2=C3C=C(SC3=CN=C2)C(=O)N
# Outline: as §1
# [11] = compound: CC1=NC(=CC=C1)C2=C(N=C(N2)C(C)(C)C)C3=CC4=NC=CN=C4C=C3
# Outline: as §1
# [12] = compound: CCCS(=O)(=O)Nc1ccc(F)c(C(=O)c2c[nH]c3ncc(Cl)cc23)c1F
# Outline: as §1
# [13] = compound: CCCc1cc(C)[nH]c(=O)c1CNC(=O)c1cc(-c2ccnc(N3CCN(C)CC3)c2)cc2c1cnn2C(C)C
# Outline: as §1
# [14] = compound: CCN(CC)Cc1ccc2cc(COC(=O)Nc3ccc(C(=O)NO)cc3)ccc2c1 [givinostat]
# Outline: as §1
# [15] = compound: C=CC(=O)N1CCC[C@@H](n2nc(-c3ccc(Oc4ccccc4)cc3)c3c(N)ncnc32)C1 [ibrutinib]
# Outline: as §1
# [16] = compound: CC(C)(O)CC(=O)NCCn1ccc2ncnc(Nc3ccc(Oc4cccc(C(F)(F)F)c4)c(Cl)c3)c21
# Outline: as §1
# [17] = compound: CC1=C(C=C(C=C1)NC(=O)C2=CC(=CC=C2)C(C)(C)C#N)NC3=CC4=C(C=C3)N=CN(C4=O)C
# Outline: as §1
# [18] = compound: CCCCN(Cc1ccc(C(=O)NO)cc1)C(=O)Nc1ccccc1 [Nexturastat A]
# Outline: as §1
# [19] = compound: CCCS(=O)(=O)Nc1ccc(F)c(C(=O)c2c[nH]c3ncc(-c4ccc(Cl)cc4)cc23)c1F [vemurafenib]
# Outline: as §1
# [20] = compound: CCN(CCCOc1ccc2c(Nc3cc(CC(=O)Nc4cccc(F)c4)[nH]n3)ncnc2c1)CCOP(=O)(O)O [barasertib]
# Outline: as §1
Target,log2 fold change [1],log2 fold change [2],log2 fold change [3],log2 fold change [4],log2 fold change [5],log2 fold change [6],log2 fold change [7],log2 fold change [8],log2 fold change [9],log2 fold change [10],log2 fold change [11],log2 fold change [12],log2 fold change [13],log2 fold change [14],log2 fold change [15],log2 fold change [16],log2 fold change [17],log2 fold change [18],log2 fold change [19],log2 fold change [20]
TMEM59 (UniProt Q9BXS4),inactive: -0.078,inactive: -0.144,inactive: 0.027,inactive: 0.315,inactive: 0.272,inactive: -0.151,inactive: 0.009,inactive: -0.071,inactive: -0.282,inactive: -0.041,inactive: 0.003,inactive: -0.011,inactive: 0.257,inactive: -0.042,,,,,,
TMEM120A (UniProt Q9BXJ8),inactive: -0.066,inactive: -0.068,inactive: -0.003,inactive: -0.006,inactive: -0.078,inactive: 0.093,,inactive: 0.051,inactive: 0.007,inactive: 0.115,inactive: -0.004,inactive: 0.085,inactive: -0.007,inactive: 0.116,inactive: -0.183,inactive: -0.429,inactive: 0.181,inactive: -0.259,inactive: 0.06,inactive: -0.006
TMEM184C (UniProt Q9NVA4),inactive: 0.105,inactive: 0.042,inactive: -0.033,,inactive: 0.042,inactive: -0.021,,inactive: -0.005,inactive: 0.028,,inactive: 0.028,,inactive: -0.028,,inactive: -0.037,inactive: 0.088,inactive: -0.07,inactive: -0.02,inactive: 0.024,inactive: 0.055
TM7SF3 (UniProt Q9NS93),inactive: -0.06,inactive: 0.055,inactive: -0.068,active: -0.485,inactive: 0.01,inactive: -0.036,,inactive: 0.057,inactive: -0.054,inactive: 0.005,inactive: 0.017,inactive: -0.019,inactive: -0.027,inactive: 0.06,inactive: 0.014,,inactive: -0.033,,,inactive: 0.045
TMEM101 (UniProt Q96IK0),inactive: -0.001,inactive: -0.006,inactive: -0.054,inactive: -0.219,inactive: 0.002,inactive: 0.031,inactive: 0.008,inactive: -0.067,inactive: 0.013,inactive: 0.068,inactive: 0.049,inactive: 0.098,inactive: 0.013,inactive: 0.013,inactive: 0.011,,,,inactive: -0.004,inactive: 0.05
